Values quoted from earlier work, collected in patent publication US10335381B2, “Stabilized formulation of triamcinolone acetonide” (University of Mississippi, priority 2006, dated 2019).
At least one structure is not confirmed: it was looked up by name or label, or the drawing left a doubt.

Details: Ungphaiboon et al. 2005

## CC1(C)O[C@@H]2C[C@H]3[C@@H]4CCC5=CC(=O)C=C[C@]5(C)[C@@]4(F)[C@@H](O)C[C@]3(C)[C@]2(C(=O)CO)O1 [TAA, triamcinolone acetonide]
  pH at which decomposition of TAA in aqueous solutions was minimal: 3.4
Aqueous solutions
  pH above which the rate of TAA decomposition increased rapidly: > 5.5
